Assay results published in the supplement of paper PMC12823440, “Inhibitors supercharge kinase turnover through native proteolytic circuits” (Nature, 2025).
Where a name gives a salt, the structure may show the parent alone. Some of the results follow. The calls rarely recur for the same compound in another form.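 Kinases, fused to nanoluciferase, were expressed in K562 cells; luminescence was measured every 4 h from 2 to 18 h as percent of control (DMSO = 100%, positive control = 0%). A time point is decreased if signal falls significantly (2 sigma). Hits were called by the authors by a rule that is not shown; the count of time points alone does not decide it.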

Chains of the proteins cited; added tags and fusions are not shown. Lines headed by an entry give the natural chain unless they say otherwise; changes in a name come on top.
UniProt P48729: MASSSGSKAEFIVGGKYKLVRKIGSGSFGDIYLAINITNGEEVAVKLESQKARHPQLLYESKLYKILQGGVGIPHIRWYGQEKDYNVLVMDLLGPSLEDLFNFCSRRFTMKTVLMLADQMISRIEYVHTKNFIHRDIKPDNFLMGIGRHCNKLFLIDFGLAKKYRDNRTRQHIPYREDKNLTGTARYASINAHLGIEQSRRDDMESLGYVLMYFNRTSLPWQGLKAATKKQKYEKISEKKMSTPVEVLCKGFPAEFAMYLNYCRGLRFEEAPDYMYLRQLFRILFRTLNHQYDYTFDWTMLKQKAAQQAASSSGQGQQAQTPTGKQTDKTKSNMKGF
UniProt Q08345: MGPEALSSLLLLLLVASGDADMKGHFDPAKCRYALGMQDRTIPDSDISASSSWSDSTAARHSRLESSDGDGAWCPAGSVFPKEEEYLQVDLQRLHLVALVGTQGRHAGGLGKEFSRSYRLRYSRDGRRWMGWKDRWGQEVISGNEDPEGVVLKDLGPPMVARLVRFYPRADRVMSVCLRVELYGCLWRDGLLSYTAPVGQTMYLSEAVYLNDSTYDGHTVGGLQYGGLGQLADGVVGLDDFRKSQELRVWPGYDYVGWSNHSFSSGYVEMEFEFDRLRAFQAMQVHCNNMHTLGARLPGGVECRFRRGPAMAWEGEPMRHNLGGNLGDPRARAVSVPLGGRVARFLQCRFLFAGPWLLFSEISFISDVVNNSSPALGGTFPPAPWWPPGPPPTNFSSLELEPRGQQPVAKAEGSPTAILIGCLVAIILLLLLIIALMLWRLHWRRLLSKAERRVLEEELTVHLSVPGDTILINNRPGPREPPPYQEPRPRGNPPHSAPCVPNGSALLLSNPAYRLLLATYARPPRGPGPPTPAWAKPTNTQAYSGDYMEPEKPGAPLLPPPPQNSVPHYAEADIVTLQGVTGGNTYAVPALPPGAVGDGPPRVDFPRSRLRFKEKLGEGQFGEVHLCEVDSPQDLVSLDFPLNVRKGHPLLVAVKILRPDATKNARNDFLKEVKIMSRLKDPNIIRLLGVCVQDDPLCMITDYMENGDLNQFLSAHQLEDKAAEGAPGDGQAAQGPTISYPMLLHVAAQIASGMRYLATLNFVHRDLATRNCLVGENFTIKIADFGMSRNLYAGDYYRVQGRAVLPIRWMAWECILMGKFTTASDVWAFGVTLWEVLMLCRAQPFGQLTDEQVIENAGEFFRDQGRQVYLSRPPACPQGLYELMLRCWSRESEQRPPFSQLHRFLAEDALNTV
UniProt Q9Y463, whole entry, looked up: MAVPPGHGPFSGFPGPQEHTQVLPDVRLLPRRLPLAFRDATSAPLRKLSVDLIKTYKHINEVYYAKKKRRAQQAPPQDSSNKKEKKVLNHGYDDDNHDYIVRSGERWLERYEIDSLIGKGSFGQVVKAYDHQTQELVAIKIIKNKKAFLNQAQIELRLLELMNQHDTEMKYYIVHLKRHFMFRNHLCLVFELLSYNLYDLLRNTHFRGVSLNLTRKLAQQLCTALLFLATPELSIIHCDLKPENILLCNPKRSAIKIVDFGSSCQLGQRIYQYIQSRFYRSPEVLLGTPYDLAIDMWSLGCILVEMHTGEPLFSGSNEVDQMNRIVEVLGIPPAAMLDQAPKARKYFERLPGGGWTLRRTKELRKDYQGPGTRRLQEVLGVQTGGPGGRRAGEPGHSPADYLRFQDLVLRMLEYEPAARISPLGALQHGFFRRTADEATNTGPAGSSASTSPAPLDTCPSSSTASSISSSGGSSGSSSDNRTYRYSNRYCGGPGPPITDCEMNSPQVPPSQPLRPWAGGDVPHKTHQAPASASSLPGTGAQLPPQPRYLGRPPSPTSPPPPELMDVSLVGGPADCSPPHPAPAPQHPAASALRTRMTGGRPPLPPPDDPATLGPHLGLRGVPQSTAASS
UniProt Q92630: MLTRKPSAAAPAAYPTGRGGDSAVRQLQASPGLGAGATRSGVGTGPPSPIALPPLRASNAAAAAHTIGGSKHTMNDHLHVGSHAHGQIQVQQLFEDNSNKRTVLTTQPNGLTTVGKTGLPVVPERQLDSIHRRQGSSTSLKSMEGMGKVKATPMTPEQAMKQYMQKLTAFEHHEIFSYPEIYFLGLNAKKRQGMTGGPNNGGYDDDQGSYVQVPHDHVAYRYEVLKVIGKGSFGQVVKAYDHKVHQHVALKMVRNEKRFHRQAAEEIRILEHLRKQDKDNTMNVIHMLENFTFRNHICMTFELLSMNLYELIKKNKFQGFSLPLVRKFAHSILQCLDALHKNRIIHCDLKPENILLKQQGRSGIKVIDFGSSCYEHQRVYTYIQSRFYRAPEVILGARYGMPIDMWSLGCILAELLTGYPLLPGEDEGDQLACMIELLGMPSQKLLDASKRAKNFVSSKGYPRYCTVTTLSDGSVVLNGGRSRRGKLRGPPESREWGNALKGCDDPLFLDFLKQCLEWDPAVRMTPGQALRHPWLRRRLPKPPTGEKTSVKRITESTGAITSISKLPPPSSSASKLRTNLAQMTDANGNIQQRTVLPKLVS
UniProt P29317, whole entry: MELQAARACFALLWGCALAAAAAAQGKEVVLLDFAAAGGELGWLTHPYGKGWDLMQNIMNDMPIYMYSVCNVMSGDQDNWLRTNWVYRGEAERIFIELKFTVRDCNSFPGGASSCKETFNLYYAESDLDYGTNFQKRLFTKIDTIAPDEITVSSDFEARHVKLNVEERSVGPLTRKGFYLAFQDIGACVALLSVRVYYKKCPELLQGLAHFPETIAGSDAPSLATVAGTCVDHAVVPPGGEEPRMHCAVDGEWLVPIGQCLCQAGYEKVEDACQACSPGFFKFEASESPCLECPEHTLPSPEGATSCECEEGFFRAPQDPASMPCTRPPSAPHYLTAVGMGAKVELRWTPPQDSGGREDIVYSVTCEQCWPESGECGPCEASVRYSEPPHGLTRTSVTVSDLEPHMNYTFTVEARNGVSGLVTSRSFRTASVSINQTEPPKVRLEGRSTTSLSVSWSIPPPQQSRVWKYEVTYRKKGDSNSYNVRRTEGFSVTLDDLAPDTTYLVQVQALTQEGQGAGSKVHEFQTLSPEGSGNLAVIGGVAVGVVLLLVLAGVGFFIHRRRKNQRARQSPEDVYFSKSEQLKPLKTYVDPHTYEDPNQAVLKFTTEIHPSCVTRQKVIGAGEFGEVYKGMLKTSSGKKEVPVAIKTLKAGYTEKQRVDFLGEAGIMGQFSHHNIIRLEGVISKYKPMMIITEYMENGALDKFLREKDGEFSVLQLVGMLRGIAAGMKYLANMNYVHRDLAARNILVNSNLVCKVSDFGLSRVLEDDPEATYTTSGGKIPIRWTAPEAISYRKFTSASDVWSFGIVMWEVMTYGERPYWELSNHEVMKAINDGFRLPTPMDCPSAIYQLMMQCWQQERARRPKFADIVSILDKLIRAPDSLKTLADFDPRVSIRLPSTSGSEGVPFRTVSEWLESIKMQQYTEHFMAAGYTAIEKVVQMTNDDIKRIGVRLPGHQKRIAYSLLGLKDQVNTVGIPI
UniProt Q15303, whole entry R711C: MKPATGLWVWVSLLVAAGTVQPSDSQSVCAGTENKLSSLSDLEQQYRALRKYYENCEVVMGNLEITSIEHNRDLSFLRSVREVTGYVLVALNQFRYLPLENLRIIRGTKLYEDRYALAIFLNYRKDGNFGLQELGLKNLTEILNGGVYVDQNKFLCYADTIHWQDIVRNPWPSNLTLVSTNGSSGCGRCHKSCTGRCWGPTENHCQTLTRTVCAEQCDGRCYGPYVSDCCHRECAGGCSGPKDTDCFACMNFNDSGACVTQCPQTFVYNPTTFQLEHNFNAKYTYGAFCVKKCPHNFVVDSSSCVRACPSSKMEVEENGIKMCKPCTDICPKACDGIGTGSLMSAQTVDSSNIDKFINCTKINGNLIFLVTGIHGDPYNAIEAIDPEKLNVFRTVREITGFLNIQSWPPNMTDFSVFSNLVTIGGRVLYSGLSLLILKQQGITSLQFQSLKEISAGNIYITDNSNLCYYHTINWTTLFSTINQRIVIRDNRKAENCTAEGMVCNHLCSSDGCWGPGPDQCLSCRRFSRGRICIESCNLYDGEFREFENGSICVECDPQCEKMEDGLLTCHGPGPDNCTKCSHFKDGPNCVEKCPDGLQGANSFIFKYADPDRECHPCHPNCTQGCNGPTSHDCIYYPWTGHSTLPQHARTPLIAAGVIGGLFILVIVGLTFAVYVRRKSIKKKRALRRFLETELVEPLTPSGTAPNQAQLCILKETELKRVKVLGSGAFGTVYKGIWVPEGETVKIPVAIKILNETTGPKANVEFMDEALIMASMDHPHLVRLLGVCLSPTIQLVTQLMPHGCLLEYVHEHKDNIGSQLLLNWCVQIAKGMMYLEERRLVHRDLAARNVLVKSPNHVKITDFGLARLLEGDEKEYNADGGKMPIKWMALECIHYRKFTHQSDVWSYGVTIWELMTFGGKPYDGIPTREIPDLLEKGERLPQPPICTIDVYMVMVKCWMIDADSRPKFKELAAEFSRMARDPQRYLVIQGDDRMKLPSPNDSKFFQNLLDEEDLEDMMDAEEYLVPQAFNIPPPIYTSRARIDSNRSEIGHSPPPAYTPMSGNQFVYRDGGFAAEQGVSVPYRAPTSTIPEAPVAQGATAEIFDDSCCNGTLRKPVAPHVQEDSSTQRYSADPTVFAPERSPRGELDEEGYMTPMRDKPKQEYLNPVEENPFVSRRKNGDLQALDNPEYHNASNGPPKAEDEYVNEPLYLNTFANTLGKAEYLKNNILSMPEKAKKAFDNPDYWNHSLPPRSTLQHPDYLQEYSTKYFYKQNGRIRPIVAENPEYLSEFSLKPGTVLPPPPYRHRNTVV
UniProt P11362, whole entry, looked up: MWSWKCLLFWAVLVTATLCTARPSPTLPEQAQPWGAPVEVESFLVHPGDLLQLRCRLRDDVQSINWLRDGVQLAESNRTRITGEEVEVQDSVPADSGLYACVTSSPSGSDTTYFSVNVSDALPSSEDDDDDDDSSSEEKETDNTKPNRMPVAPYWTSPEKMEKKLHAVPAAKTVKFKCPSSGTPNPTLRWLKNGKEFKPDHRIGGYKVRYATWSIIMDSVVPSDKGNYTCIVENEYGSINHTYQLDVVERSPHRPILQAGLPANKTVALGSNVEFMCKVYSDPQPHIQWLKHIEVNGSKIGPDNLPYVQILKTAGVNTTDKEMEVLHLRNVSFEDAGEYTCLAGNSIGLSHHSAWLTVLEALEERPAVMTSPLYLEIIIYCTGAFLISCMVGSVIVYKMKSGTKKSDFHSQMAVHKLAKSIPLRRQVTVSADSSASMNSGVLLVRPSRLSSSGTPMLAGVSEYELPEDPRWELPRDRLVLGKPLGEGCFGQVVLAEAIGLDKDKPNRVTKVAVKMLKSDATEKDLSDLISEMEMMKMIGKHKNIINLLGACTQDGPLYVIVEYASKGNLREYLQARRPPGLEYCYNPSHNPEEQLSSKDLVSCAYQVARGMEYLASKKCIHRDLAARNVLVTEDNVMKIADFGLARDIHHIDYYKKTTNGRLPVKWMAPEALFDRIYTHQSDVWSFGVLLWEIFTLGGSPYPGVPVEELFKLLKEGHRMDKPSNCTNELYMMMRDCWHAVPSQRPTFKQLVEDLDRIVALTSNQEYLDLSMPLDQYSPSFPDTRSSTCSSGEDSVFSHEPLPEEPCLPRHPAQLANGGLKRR
UniProt P21802, whole entry, looked up: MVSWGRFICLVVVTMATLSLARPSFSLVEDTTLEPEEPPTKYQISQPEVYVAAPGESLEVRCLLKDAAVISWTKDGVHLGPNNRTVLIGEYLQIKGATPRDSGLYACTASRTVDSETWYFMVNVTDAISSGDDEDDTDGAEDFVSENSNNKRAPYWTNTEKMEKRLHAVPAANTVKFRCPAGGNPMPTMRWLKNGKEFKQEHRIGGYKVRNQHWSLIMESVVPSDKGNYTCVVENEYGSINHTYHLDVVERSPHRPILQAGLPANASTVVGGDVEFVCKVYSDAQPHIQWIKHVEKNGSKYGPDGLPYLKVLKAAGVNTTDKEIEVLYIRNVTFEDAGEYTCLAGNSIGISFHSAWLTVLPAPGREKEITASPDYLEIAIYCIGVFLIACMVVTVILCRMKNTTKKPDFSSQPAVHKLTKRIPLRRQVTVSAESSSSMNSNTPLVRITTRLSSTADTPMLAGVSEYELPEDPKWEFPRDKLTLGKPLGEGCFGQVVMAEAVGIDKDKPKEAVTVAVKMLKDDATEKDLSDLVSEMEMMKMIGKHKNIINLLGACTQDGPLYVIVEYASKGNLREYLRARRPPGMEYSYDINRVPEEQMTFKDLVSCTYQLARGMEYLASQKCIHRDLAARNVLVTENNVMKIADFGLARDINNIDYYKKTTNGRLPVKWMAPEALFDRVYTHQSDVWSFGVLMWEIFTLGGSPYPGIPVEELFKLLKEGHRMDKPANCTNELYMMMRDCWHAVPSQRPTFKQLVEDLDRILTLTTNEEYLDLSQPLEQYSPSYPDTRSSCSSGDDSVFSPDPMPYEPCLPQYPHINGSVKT

Key:
Test in all cases: number of time points (of 5) at which kinase-Nluc abundance scored as decreased, DMSO-normalised (count); higher = more persistent destabilization
Conditions in all cases: K562; 2-18 h
CSNK1A1 = CSNK1A1 (UniProt P48729)
CSNK1D = CSNK1D (UniProt P48730)
DDR1 = DDR1 (UniProt Q08345)
DYRK1B = DYRK1B (UniProt Q9Y463)
DYRK2 = DYRK2 (UniProt Q92630)
EGFR = EGFR (UniProt P00533)
EGFR_G719S = EGFR_G719S (UniProt P00533)
EGFR_G719S_T790M = EGFR_G719S_T790M (UniProt P00533)
EGFR_L718V = EGFR_L718V (UniProt P00533)
EGFR_L858R = EGFR_L858R (UniProt P00533)
EGFR_L861Q = EGFR_L861Q (UniProt P00533)
EGFR_T790M = EGFR_T790M (UniProt P00533)
EPHA2 = EPHA2 (UniProt P29317)
ERBB3 = ERBB3 (UniProt P21860)
[1] = target: ERBB4_R711C (clone: ERBB4_mut) (UniProt Q15303)
ERN1 = ERN1 (UniProt O75460)
FGFR1 = FGFR1 (UniProt P11362)
FGFR2 = FGFR2 (UniProt P21802)
FGFR3 = FGFR3 (UniProt P22607)
FGR = FGR (UniProt P09769)

Measured: number of time points

Nc1cccc(-c2cc3c(Oc4cccc(O)c4)ncnc3[nH]2)c1 (10 µM)
3: DYRK2 | ERBB3 | FGFR1
4: FGFR2
1: CSNK1A1 | EGFR_G719S | EGFR_L858R
2: CSNK1D | DDR1 | EGFR_L861Q | [1]
0: all other assays above

COc1ccc2cc(-c3nc(-c4ccc([S+](C)[O-])cc4)[nH]c3-c3ccncc3)ccc2c1 (stereo not given) [Tie2 kinase inhibitor 1] (2.5 µM)
0: all assays above

CN(C)CCC=C1c2ccccc2CCc2ccccc21 [Amitriptyline (hydrochloride)] (2.5 µM)
0: all assays above

Retrieved by compound from the entries so far (2):
Nc1cccc(-c2cc3c(Oc4cccc(O)c4)ncnc3[nH]2)c1 (10 µM)
3: DYRK2 | ERBB3 | FGFR1
4: FGFR2
1: CSNK1A1 | EGFR_G719S | EGFR_L858R
2: CSNK1D | DDR1 | EGFR_L861Q | [1]
0: all other assays above

CN(C)CCC=C1c2ccccc2CCc2ccccc21 [Amitriptyline (hydrochloride)] (2.5 µM)
0: all assays above

(more compounds)

CC(C)(O)[C@H]1CC[C@H](Nc2ccc3ncc(-c4cccc(C(F)(F)F)c4)n3n2)CC1 (10 µM)
0: all assays above

CN1C(=O)[C@@H](NC(=O)c2n[nH]c(Cc3ccccc3)n2)COc2ccccc21 (10 µM)
0: all assays above

Cc1cccc2c3c(ccc12)C(=O)C1=C(OCC1C)C3=O (stereo not given) [Dihydroisotanshinone I] (2.5 µM)
0: all assays above

O=C(NCc1cccc(O)c1)Nc1nc(-c2ccncc2)cs1 (10 µM)
0: all assays above

O=C(O)c1cccc(CN2C(=O)/C(=C(\c3ccccc3)c3ccc(Cl)cc3)c3ccccc32)c1 (2.5 µM)
0: all assays above

O=C(Nc1nc2ccc(NC(=O)C34CC5CC(CC(C5)C3)C4)cc2s1)c1ccccc1 (10 µM)
0: all assays above

N#Cc1c2nc3ccccc3nc2n2ccc(NC(=O)c3cccs3)cc12 (10 µM)
0: all assays above

C=CCc1ccc(O)c(-c2ccc(O)c(CC=C)c2)c1 [Honokiol] (10 µM)
0: all assays above

COc1ccc2cc3[n+](cc2c1OC)CCc1cc(O)c(O)cc1-3 [Demethyleneberberine] (10 µM)
0: all assays above
